Data from patent US6486326B2, “iso-CBI and iso-CI analogs of CC-1065 duocarmycins” (The Scripps Research Institute, priority 1997, dated 2002).
Like-named read-outs stand apart in the source and are kept apart here. For at least one compound, name, drawing or mass did not settle the structure. Some entries share one result that the patent states for a list of compounds.

Columns and labels:
[1] = acid-catalyzed solvolysis; comparison agents; cited from earlier work
[2] = system: w836 DNA (146 bp); assay: DNA alkylation selectivity and efficiency, thermally-induced strand cleavage of w836 DNA; assay type: biochemical
Method: FIG. 6 illustsrates thermally-induced strand cleavage of w836 DNA (146 bp, nucleotide nos. 5189-91): DNA-agent incubation for 24 h ((−)-iso-CBI-TMI) at 25° C., removal of unbound agent and 30 min of thermolysis (100° C.), followed by denaturing 8% PAGE and autoradiography; lane 1, control DNA; lanes 2-5, Sanger G, C, A, and T sequencing reactions; lanes 6-8 (−)-iso-CBI-TMI ([…] to 1×10^−5 M); lanes 9-10, (+)-duocarmycin SA (1×10^−5 to 1×10^−6 M); lanes 11-12, (+)-iso-CBI-TMI (1×10^−2 and 1×10^−3).
DNA Alkylation Selectivity and Efficiency: The DNA alkylation properties of the agents were examined within w794 and w836 duplex DNA for which comparative results are available for related agents. (Boger, D. L., et al., J. Am. Chem. Soc. 1994, 116, 11335; Boger, D. L., et al., J. Am. Chem. Soc. 1994, 116, 6461; and Boger, D. L., et al., J. Am. Chem. Soc. 1995, 117, 11647) The alkylation site identification and the assessment of the relative selectivity among the available sites were obtained by thermally-induced strand cleavage of the singly 5′ end-labeled duplex DNA after exposure to the agents. […]

[3] = Solvolysis regioselectivity (acid-catalyzed nucleophilic addition of CH3OH); assay type: physicochemical; conditions: 0.1 equiv CF3SO3H in CH3OH, 25° C., 17 h; ratio 62:63

**Q.** For `CC(C)(C)OC(=O)N1CC2CC23C1=CC(=O)c1ccccc13` (centres unmarked) [compound 58], which Regioselectivity [1] is on record?
**A.** > 20:1

**Q.** With `COc1cc2cc(C(=O)N3CC4CC45C(=O)c4ccccc4C=C35)[nH]c2c(OC)c1OC` (single isomer, unassigned; (+)) [(+)-iso-CBI-TMI, 2-[(5,6,7-Trimethoxyindol-2-yl)carbonyl]-1,2,9,9a-tetrahydrocyclopropa[c]benzo[f]indol-8-one] as the molecule, how does the “DNA alkylation, less effective than the natural enantiomer” value [2] read?
**A.** 50-100 ×

**Q.** For `COc1ccc2c(c1)C13CC1CN(C(=O)OC(C)(C)C)C3=CC2=O` (racemic) [compound 59], which Regioselectivity [1] is on record?
**A.** >20:1

**Q.** Which Regioselectivity [3] does the source give for `CC(C)(C)OC(=O)N1CC2CC23C(=O)c2ccccc2C=C13` (racemic) [compound 31, 2-(tert-Butyloxycarbonyl)-1,2,9,9a-tetrahydrocyclopropa[c]benzo[f]indol-8-one] here?
**A.** 40:1

**Q.** For `COc1cc2cc(C(=O)N3CC4CC45C(=O)c4ccccc4C=C35)[nH]c2c(OC)c1OC` (single isomer, unassigned; (-)) [(−)-iso-CBI-TMI, 2-[(5,6,7-Trimethoxyindol-2-yl)carbonyl]-1,2,9,9a-tetrahydrocyclopropa[c]benzo[f]indol-8-one], which “DNA alkylation efficiency, lower than (+)-duocarmycin SA” value ([2]; 24 h, 25° C.) is on record?
**A.** 50-100 fold
